Test results published in US20130288981A1, “TARGETING SENESCENT CELLS AND CANCER CELLS BY INTERFERENCE WITH JNK AND/OR FOXO4” (Buck Institute for Research on Aging, priority 2012, published 2013).
“Also recorded” adds a separate entry of the source. At least one compound was matched to its structure with a doubt left.

Assays:
A375 melanoma cells [1] = test: Surviving fraction (MTS) of A375-shGFP versus A375-shFOXO4 cells treated with chemotherapeutic agents; type: cell-based, human
Protocol: FIG. 12. FOXO4 inhibition on sensitizes A375 melanoma cells to inhibitors of the BRAF/MEK pathway. A) A375 cells stably infected with a control shRNA (shGFP) or an shRNA against FOXO4 (shFOXO4) were treated with the indicated concentrations of the BRAF^V600E-inhibitor PLX4032 and the percentage of the surviving fraction on was determined by Aqueous CellQuant assay either after day 6 (left panel) or day 11 (right panel). Note that for the right panel the cells were refreshed at day 7 with the exact same concentration on of PLX4032. B) Similar experiment as in A), except with the general RAF inhibitor RAF265. C) Similar experiment as in A), except with the MEK inhibitor AZD6244.
FIG. 12A: 2×10^4 A375-shGFP or A375-shFOXO4-2 cells were plated in triplicate in 96-well plate chambers. The next day the cells were incubated with the indicated concentrations of PLX4032 or left untreated. After 6 days the a CellTiter 96® AQueous One Solution Cell Proliferation Assay (MTS) was performed according to the manufacturer's instructions (Promega) to determine the relative number of cells versus Mock treated A375-shGFP or A375-shFOXO4-2 melanoma cells (Left panel). Additionally, in a separate experiment the cells were refreshed at day 7 with the same dose of PLX4032 and left for another 4 days after which the same procedure was performed. […]

[2] = tested on: BRAF^V600E-mutated A375 malignant melanoma cells; test: Cytochrome C release in A375 cells with FOXO4 knockdown treated with PLX4032; type: cell-based, human; settings: 0.5 μM, 2 μM and 10 μM PLX4032
A375 melanoma cells [3] = test: A375 cell viability (MTS) with SP600125 with or without RAF265; type: cell-based, human
JNK1/2 = settings: Bennett et al. 2001; cited from earlier work
A375 melanoma cells [4] = test: A375 colony assay with Trametinib, shGFP versus shFOXO4; type: cell-based, human

## Cn1cnc2c(F)c(Nc3ccc(Br)cc3Cl)c(C(=O)NOCCO)cc21 [AZD6244, selumetinib]
A375 melanoma cells [1]
  sensitivity of A375-shFOXO4 versus A375-shGFP melanoma cells: more sensitive

## CCCS(=O)(=O)Nc1ccc(F)c(C(=O)c2c[nH]c3ncc(-c4ccc(Cl)cc4)cc23)c1F [PLX4032, Vemurafenib]
A375 melanoma cells [1]
  sensitivity of A375-shFOXO4 versus A375-shGFP melanoma cells: more sensitive
[2]
  sensitivity of A375 cells to the drug upon FOXO4 knockdown (Cytochrome C release): strongly sensitized; also recorded: Increased sensitivity

## Oc1c2ccccc2c2c3c(cccc13)N=N2 [SP600125]
A375 melanoma cells [3]; SP600125 alone, 6 days
  A375 melanoma cell numbers (viability versus Mock): only mildly affected
A375 melanoma cells [3]; SP600125 in the presence of 6 μM RAF265, 6 days, dose-dependent
  sensitization of A375 melanoma cells to RAF265: significantly sensitized to RAF265; also recorded: sensitizes
JNK1/2
  specificity for JNK: significant specificity for JNK

## CC(=O)Nc1cccc(-n2c(=O)n(C3CC3)c(=O)c3c(Nc4ccc(I)cc4F)n(C)c(=O)c(C)c32)c1 [Trametinib]
A375 melanoma cells [4]; 20 nM and 80 nM, versus shGFP
  sensitivity of shFOXO4-infected A375 cells in colony assay: markedly increased sensitivity
A375 melanoma cells [4]; shFOXO4, concentrations as low as 80 nM, one week
  colony forming potential of FOXO4-depleted A375 cells: near-complete loss of colony forming potential
A375 melanoma cells [4]; shGFP, 80 nM, one week
  colony forming potential of FOXO4-expressing A375 cells: but not FOXO4-expressing
